Test results as given in paper PMC8958351, “Ubiquitylation of cyclin C by HACE1 regulates cisplatin‐associated sensitivity in gastric cancer” (Clinical and Translational Medicine, 2022).
These are yes or no findings as the source states them, for the method shown. For part of these data: Binding seen in cells or lysates may run through a third protein. Some binding calls cover weakened binding; strength is not graded here. For part of these data: Tags and fused reporters may be left off the sequences shown. Each block holds one molecule with its values, some of them ahead of it.

Tests used:
[1] = target: T1, Flag‐tagged HACE1 (human) (UniProt Q8IYU2); assay: co-IP; HEK-293FT cells co-transfected; Flag-tagged HACE1 pulled down, HA-CCNC immunoblotted; without cisplatin
T1 sequence: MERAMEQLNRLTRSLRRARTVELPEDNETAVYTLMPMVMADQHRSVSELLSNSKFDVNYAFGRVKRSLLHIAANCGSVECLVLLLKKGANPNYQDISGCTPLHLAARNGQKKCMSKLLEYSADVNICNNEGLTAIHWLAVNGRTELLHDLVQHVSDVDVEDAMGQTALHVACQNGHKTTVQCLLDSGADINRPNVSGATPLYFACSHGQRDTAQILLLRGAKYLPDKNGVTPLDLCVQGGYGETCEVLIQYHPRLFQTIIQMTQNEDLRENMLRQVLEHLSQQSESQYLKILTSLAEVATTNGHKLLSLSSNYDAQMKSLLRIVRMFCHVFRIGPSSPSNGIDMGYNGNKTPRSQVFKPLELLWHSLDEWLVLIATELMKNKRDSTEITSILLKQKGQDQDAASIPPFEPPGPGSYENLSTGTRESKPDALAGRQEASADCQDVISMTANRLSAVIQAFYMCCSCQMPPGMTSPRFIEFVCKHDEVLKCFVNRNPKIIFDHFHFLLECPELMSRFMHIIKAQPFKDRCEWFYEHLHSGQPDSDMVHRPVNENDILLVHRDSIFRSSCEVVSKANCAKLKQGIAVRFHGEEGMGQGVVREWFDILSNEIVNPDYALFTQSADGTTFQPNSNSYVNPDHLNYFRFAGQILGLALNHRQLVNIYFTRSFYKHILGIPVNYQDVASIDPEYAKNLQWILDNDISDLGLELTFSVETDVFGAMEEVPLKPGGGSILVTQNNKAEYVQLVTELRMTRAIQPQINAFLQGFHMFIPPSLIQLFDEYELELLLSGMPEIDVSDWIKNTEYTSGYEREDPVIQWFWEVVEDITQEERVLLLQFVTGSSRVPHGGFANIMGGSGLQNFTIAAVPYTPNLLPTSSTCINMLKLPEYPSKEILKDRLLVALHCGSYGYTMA

[2] = target: T1, Flag‐tagged HACE1 (human); assay: co-IP; HEK-293FT cells co-transfected; Flag-tagged HACE1 pulled down, HA-CCNC immunoblotted; with 10 μM cisplatin treatment
[3] = target: T2, GST‐HACE1 truncation, amino acids 1–257 (human) (UniProt Q8IYU2); assay: pull-down; GST pull-down; purified GST-HACE1 proteins incubated with purified cyclin C-MBP-His for 6 h at 4°C in 50 mM Tris-Cl, 200 mM NaCl, 1 mM EDTA, 1% NP-40, 1 mM DTT, 10 mM MgCl2, 10 μg/ml BSA, pH 8.0; GST pulled down, cyclin C immunoblotted; both purified
T2 sequence: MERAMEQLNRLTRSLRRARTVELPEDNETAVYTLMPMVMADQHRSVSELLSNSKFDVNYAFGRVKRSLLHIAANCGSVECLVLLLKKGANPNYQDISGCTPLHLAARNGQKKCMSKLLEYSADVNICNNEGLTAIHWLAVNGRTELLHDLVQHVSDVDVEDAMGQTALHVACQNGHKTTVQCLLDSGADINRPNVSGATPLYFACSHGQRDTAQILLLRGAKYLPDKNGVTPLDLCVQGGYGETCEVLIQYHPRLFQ

[4] = target: Cyclin C (CCNC), yeast two-hybrid fusion (human) (UniProt P24863); assay: two-hybrid; yeast two-hybrid; colony formation on SD-Leu-Trp-His-Ura (SD-4) selection media and plate assays for β-galactosidase activity
[5] = target: Cyclin C, endogenous (human (endogenous in HEK-293FT)) (UniProt P24863); assay: co-IP; endogenous proteins in HEK-293FT cells; cyclin C pulled down with cyclin C-specific antibody, HACE1 immunoblotted; without cisplatin
[6] = target: Cyclin C, endogenous (human (endogenous in HEK-293FT)) (UniProt P24863); assay: co-IP; endogenous proteins in HEK-293FT cells; cyclin C pulled down with cyclin C-specific antibody, HACE1 immunoblotted; with 10 μM cisplatin treatment

binding [1]: binds weakly | binding [2]: binds
Molecule: HA‐CCNC (from UniProt P24863 1-283)

binding [3]: no binding
B1: MBP‐His‐tagged cyclin C (natural protein, human)
chain: MAGNFWQSSHYLQWILDKQDLLKERQKDLKFLSEEEYWKLQIFFTNVIQALGEHLKLRQQVIATATVYFKRFYARYSLKSIDPVLMAPTCVFLASKVEEFGVVSNTRLIAAATSVLKTRFSYAFPKEFPYRMNHILECEFYLLELMDCCLIVYHPYRPLLQYVQDMGQEDMLLPLAWRIVNDTYRTDLCLLYPPFMIALACLHVACVVQQKDARQWFAELSVDMEKILEIIRVILKLYEQWKNFDERKEMATILSKMPKPKPPPNSEGEQGPNGSQNSSYSQS
notes: Cyclin C, human; the cDNA of CCNC cloned into pSJ8 (pET21a derivative, MBP-His fusion vector); also called cyclin C‐MBP‐His; source: Escherichia coli BL21, purified (Ni‐NTA agarose beads)

binding [4]: binds
B2: HECT domain and ankyrin repeat‐containing E3 ubiquitin‐protein ligase 1 (HACE1), yeast two-hybrid fusion (enzyme, UniProt Q8IYU2 1-909)
chain: T1 sequence

binding [5]: binds weakly | binding [6]: binds
B3: HACE1, endogenous (enzyme, UniProt Q8IYU2 1-909)
chain: T1 sequence
